Experimental findings from US20200132665A1, “Method for in vitro detection of the proarrhythmogenic risk of a drug candidate on human induced pluripotent stem cell-derived cardiomyocytes (hiPSC-CM)” (priority 2018, published 2020) are described below.

The test system of the data set is Cor.4U® cardiomyocyte (hiPSC-CM). As to conditions: nifedipine 1 μM, current-clamp at 1-min intervals over 10 min, Cor.4U cardiomyocyte (FIG. 14 dotted trace).

As for `COC(=O)C1=C(C)NC(C)=C(C(=O)OC)C1c1ccccc1[N+](=O)[O-]` [nifedipine], the “effect on AP plateau (AP shape)” value was “disappearance of the AP plateau”.
